The match of structure and compound is tentative.
How the values were obtained:
[1] = target: Human leukocyte elastase (HLE) (Homo sapiens, UniProt P08246); assay: Human leukocyte elastase assay; details: 50 μM compound; 30 minutes pre-incubation
Procedure: Human Leukocyte Elastase Assay
Human leukocyte elastase (HLE) (CALBIOCHEM) was dissolved in saline at 1 mg/ml and further diluted 1/10 in assay buffer (0.2 M Tris, pH 8.0) before use.
0.75 μl of test compound in DMF (or DMF alone), 50 μl of assay buffer and 50 μl of enzyme were added to 96 well plate, mixed and pre-incubated for 30 minutes at ambient temperature. Reaction was initiated by addition of 50 μl of 2.5 mM methoxysuccinyl-Ala-Ala-Pro-Val-p-nitroanilide (Sigma; 25 mM in DMSO diluted 1/10 in assay buffer before use). The increase in absorbance at 405 nm was monitored for 3 min. with BIO-RAD model 3550 microplate reader.

Protein sequences, listed by entry. Tags and fused reporters are not part of them. Residues count along the entry.
UniProt P08246, 30-267 limits assumed: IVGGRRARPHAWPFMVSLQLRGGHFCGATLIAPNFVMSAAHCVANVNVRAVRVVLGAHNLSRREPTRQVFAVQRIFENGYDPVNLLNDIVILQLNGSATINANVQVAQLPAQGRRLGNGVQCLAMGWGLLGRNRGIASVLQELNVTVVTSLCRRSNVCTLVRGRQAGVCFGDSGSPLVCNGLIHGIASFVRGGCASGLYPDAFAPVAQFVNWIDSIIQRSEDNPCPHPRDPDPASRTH

[2] = target: Bovine pancreas α-chymotripsin (Bos taurus, UniProt P00766); assay: Chymotripsin assay; format: biochemical; details: 50 μM compound; 30 minutes pre-incubation
Procedure: The chymotripsin assay was modified from the method of Delmar, et al. (Anal. Biochem. 99, 316-320 (1979)). Bovine pancreas α-chymotripsin(type II, Sigma) was dissolved in 0.001 N HCl at 1 mg/ml and further diluted 1/1000 in assay buffer (0.1 M Tris, pH 7.8 containing 0.1 M CaCl2) before use. 0.75 μl of test compound in DMF (or DMF alone), 50 μl of assay buffer and 50 μl of enzyme were added to 96 wells plates, mixed and pre-incubated for 30 minutes at ambient temperature. Reaction was initiated by addition of 50 μl of 0.2 mM N-succinyl-Ala-Ala-Pro-Phe-p-nitroanilide (Sigma; 2 mM in DMSO diluted 1/10 in assay buffer before use). The increase in absorbance at 405 nm was monitored for 3 minutes with BIO-RAD model 3550 microplate-reader.

SMILES: Cc1c(NC(=O)COCc2ccccc2)ccc2nc(N(C(C)C)C(C)C)oc(=O)c12
- INHIBITION AT 50 μM HLE (%) [1]: 18.2%
- INHIBITION AT 50 μM CHYMOTRYPSIN (%) [2]: 28.4%
